The data set relates to hippocampal gene expression. Briefly: Bulk RNA-seq of hippocampal tissues. Type of data set: in vivo. The note with it: hippocampus, AP5-treated vs untreated APP/PS1 mice. On the procedure:
APP/PS1 mice of ages 6 months were randomly divided into vehicle (APP/PS1, n = 10) and treatment groups (AP5, n = 10), which were intragastrically administered with AP5 (40 mg/kg) once daily for consecutive 5 months. AP5 was dissolved in distilled water containing 1% sodium carboxymethyl cellulose.
Hippocampal specimens from WT, APP/PS1, and AP5 mice stored in dry ice were sent to Beijing Genomics Institute (Wuhan, China), and the total RNA was extracted for RNA sequencing on BGISEQ-500 system. Moreover, the differentially expressed genes between APP/PS1 and AP5 were analyzed after RNA sequencing.

SMILES strings stand for the structures.

For the compound `CCN(C)C(=O)Oc1cccc(/C=C2\Cc3cc(OC)c(OC)cc3C2=O)c1` [AP5, (E)-3-((5,6-dimethoxy-1-oxo-1,3-dihydro-2H-inden-2-ylidene)-methyl)phenylethyl(methyl)carbamate], the differentially expressed genes came to 933 genes, the induced genes was determined as 425 genes and the suppressed genes is reported as 508 genes.

These data come from PMC9289467, “A Novel Multifunctional 5,6-Dimethoxy-Indanone-Chalcone-Carbamate Hybrids Alleviates Cognitive Decline in Alzheimer’s Disease by Dual Inhibition of Acetylcholinesterase and Inflammation” (Frontiers in Aging Neuroscience, 2022).
